Experiments:
[1] = molecular target: T1, Alpha-1B adrenergic receptor (Rattus norvegicus, UniProt P15823); test: DRUGMATRIX: Alpha-1B adrenergic receptor radioligand binding (ligand: prazosin); type: cell membranes, Wistar, Liver, Membrane; conditions: Not Active = under 50% inhibition at 10 µM
T1 sequence (P15823 whole entry): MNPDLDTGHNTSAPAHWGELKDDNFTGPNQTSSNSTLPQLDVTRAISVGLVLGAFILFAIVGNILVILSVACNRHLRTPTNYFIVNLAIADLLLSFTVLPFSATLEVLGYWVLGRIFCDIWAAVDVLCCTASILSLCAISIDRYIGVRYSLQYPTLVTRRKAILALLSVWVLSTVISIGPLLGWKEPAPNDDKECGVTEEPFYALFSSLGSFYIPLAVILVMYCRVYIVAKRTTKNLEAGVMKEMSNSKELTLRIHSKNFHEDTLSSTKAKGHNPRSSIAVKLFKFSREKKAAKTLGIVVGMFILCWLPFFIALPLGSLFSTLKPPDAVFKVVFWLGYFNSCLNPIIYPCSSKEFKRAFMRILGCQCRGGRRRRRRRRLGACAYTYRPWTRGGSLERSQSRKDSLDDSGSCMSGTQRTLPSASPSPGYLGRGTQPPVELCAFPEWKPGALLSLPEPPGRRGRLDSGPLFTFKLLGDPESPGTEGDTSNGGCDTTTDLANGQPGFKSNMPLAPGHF

By UniProt entry, the sequences of proteins in these tests, tags left out. Where a name states a change or a piece, a line headed by the entry shows the natural chain unless it says otherwise.
UniProt P11509: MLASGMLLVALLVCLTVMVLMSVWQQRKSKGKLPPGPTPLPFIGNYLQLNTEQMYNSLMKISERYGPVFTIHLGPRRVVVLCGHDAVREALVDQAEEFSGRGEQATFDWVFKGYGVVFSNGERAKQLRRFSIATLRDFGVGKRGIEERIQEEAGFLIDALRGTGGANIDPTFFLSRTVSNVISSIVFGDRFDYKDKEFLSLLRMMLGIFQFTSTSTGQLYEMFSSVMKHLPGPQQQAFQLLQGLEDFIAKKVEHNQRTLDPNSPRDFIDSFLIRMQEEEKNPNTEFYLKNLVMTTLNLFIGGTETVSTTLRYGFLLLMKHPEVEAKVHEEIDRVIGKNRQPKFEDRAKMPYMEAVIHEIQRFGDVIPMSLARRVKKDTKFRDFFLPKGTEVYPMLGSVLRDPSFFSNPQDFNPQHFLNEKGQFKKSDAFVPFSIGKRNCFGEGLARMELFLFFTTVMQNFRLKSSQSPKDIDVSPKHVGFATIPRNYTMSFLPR
UniProt P11712, whole entry: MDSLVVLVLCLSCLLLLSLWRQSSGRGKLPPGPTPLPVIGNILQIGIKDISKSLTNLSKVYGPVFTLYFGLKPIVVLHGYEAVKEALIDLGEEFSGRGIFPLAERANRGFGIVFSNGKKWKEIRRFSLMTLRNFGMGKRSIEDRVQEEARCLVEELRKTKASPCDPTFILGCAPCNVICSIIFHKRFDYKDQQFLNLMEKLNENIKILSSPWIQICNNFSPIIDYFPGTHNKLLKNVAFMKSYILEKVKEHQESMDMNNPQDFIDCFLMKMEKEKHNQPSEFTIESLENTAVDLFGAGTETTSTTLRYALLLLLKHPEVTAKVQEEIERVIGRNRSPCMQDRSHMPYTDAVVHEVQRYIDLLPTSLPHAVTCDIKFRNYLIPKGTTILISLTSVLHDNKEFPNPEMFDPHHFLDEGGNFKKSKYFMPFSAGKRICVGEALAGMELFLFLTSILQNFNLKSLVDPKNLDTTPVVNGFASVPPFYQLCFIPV
UniProt P10635, whole entry: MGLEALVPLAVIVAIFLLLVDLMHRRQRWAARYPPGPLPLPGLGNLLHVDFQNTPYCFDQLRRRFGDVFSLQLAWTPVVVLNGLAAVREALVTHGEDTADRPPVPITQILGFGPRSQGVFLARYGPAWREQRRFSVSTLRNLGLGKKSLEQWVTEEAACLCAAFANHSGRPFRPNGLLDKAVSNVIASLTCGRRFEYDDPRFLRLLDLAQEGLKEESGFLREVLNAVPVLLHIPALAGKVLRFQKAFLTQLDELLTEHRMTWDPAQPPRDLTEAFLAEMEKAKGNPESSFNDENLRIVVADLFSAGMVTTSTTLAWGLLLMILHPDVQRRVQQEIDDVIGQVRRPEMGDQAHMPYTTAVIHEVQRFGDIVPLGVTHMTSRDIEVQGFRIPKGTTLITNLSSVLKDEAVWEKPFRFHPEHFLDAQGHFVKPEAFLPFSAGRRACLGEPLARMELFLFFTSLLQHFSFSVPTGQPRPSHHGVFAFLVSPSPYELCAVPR
UniProt P05181: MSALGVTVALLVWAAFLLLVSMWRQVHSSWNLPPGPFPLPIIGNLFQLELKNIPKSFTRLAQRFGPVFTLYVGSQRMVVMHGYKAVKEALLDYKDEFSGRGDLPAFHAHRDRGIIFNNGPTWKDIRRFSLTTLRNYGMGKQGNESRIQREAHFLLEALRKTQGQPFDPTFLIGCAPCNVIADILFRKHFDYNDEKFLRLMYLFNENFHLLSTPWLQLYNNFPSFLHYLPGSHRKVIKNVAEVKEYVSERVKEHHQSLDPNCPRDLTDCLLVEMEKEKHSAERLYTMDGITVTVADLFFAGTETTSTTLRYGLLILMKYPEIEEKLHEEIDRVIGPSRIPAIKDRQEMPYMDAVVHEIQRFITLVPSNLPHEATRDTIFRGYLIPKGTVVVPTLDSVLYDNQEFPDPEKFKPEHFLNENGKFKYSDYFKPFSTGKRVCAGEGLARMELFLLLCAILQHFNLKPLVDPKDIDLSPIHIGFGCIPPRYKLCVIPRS
UniProt Q12809: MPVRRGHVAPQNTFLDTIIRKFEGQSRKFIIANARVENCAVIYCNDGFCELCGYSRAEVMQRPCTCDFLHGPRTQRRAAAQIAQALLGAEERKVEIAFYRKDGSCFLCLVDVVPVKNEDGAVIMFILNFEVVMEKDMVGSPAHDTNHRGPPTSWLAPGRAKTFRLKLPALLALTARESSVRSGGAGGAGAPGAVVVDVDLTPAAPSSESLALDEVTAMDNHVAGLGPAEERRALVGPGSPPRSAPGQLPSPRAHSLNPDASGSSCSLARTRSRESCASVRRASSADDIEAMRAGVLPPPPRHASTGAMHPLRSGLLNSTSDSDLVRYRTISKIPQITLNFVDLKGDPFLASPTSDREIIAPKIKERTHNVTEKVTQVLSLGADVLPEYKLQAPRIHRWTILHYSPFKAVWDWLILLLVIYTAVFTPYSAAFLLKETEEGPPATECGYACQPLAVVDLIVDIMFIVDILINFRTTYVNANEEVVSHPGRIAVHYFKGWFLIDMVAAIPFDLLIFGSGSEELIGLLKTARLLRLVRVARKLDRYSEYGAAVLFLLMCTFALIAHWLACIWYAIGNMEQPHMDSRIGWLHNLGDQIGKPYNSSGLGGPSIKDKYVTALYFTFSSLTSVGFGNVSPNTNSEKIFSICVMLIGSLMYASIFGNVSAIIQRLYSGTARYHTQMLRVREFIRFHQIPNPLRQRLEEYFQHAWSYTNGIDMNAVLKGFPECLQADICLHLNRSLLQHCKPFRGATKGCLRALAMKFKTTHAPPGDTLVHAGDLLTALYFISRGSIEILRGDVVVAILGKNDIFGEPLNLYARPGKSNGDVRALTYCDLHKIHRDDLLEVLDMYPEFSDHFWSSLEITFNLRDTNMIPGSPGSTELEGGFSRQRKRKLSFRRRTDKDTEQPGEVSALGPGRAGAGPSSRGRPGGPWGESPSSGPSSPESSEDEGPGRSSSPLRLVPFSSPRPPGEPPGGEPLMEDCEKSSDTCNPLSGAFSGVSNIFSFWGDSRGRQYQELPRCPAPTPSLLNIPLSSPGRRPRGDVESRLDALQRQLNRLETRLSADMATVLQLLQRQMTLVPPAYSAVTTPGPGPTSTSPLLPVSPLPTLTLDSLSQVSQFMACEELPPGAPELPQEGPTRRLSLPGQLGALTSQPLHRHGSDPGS
UniProt P07727: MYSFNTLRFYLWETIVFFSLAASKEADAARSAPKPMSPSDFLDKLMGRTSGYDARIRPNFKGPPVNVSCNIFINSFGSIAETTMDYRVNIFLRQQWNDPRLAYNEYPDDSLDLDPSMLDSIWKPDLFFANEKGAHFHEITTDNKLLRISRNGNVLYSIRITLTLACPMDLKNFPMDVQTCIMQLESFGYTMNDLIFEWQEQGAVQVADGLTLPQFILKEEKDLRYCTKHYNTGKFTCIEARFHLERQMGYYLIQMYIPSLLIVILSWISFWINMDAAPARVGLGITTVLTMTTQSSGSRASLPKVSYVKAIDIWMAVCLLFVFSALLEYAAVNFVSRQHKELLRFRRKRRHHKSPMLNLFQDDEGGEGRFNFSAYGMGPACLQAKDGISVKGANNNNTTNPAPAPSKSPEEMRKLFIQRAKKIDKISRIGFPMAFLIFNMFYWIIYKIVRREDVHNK
UniProt P20781: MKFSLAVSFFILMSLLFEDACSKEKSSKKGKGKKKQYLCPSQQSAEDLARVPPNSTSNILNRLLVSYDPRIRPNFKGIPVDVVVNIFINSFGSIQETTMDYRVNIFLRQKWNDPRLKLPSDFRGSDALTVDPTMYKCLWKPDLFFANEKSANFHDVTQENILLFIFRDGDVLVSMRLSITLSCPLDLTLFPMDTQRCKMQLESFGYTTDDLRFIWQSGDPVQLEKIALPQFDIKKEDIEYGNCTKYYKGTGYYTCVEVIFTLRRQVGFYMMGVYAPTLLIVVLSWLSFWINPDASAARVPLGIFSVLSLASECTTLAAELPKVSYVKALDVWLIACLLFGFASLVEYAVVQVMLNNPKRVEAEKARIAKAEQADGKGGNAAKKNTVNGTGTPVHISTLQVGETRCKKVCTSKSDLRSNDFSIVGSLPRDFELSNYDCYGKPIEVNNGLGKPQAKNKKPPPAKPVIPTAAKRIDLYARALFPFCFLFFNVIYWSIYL
UniProt P22771: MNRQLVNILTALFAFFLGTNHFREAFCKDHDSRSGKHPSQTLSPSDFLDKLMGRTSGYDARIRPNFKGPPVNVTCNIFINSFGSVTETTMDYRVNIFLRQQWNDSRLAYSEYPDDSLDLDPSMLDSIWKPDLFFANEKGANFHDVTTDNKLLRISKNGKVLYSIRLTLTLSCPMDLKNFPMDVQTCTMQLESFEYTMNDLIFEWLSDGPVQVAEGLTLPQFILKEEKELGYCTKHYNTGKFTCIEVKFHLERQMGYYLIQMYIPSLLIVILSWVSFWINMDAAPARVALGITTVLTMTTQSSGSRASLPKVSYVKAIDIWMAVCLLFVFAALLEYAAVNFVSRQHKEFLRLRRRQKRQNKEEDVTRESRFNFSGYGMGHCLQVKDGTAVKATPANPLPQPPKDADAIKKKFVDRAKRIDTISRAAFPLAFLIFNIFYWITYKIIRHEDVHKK
UniProt P24524: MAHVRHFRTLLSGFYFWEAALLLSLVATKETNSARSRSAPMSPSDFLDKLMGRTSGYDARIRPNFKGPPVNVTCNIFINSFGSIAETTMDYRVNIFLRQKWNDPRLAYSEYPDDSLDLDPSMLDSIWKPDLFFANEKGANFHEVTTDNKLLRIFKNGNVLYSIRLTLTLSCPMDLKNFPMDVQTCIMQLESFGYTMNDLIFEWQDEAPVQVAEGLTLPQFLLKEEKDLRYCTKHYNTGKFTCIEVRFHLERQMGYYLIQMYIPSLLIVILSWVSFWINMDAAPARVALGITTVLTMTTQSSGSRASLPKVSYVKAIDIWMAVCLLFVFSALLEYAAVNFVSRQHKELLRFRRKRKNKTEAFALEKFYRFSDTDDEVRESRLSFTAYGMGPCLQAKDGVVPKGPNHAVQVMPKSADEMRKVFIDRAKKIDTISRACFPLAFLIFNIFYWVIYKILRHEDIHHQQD

Cytochrome P450 2A6 = Cytochrome P450 2A6 (Homo sapiens, UniProt P11509); conditions: bti-tn-5b1-4; note: in other assays of this panel Not Active means under 50% inhibition at 10 µM
Cytochrome P450 2C9 = Cytochrome P450 2C9 (Homo sapiens, UniProt P11712); conditions: bti-tn-5b1-4; note: in other assays of this panel Not Active means under 50% inhibition at 10 µM
Cytochrome P450 2D6 = Cytochrome P450 2D6 (Homo sapiens, UniProt P10635); conditions: bti-tn-5b1-4; note: in other assays of this panel Not Active means under 50% inhibition at 10 µM
Cytochrome P450 2E1 = Cytochrome P450 2E1 (Homo sapiens, UniProt P05181); conditions: bti-tn-5b1-4; note: in other assays of this panel Not Active means under 50% inhibition at 10 µM
[2] = molecular target: Voltage-gated inwardly rectifying potassium channel KCNH2 (Homo sapiens, UniProt Q12809); conditions: hek293; note: in other assays of this panel Not Active means under 50% inhibition at 10 µM
Glycine receptor = Glycine receptor (Rattus norvegicus, UniProt P07727+P20781+P22771+P24524); type: cell membranes, Wistar, Spinal cord, Membrane; note: in other assays of this panel Not Active means under 50% inhibition at 10 µM

Row | SMILES | Ki [1] [nM] | IC50 ([1]; read-out: IC50) [nM] | IC50 (Cytochrome P450 2A6) | Ki (Cytochrome P450 2A6) | IC50 (Cytochrome P450 2C9) | Ki (Cytochrome P450 2C9) | IC50 (Cytochrome P450 2D6) | Ki (Cytochrome P450 2D6) | IC50 (Cytochrome P450 2E1) | Ki (Cytochrome P450 2E1) | IC50 [2] | Ki [2] | IC50 (Glycine receptor) [nM] | Ki (Glycine receptor) [nM]
1 | C(=C\c1ccccc1)/CN1CCN(C(c2ccccc2)c2ccccc2)CC1 [CINNARIZINE] | 502 | 906 | Not Active | Not Active | Not Active | Not Active | Not Active | Not Active | Not Active | Not Active | Not Active | Not Active |  | 
2 | Clc1ccc2c(c1)CCc1cccnc1C2=C1CCNCC1 [DESLORATADINE] |  |  |  |  |  |  |  |  |  |  |  |  | 834 | 471

Source: ChEMBL document CHEMBL1909046, “DrugMatrix in vitro pharmacology data”
